According to US20250041377A1 (ENLITISA (SHANGHAI) PHARMACEUTICAL CO., LTD., priority 2018, published 2025):
Where no end group is shown, it is not given here. [ ]: non-standard residue; d: D form. Hyp = O=C(O)[C@@H]1C[C@@H](O)CN1

Assay: peptide made by a vendor (Fmoc solid-phase peptide synthesis; Fmoc-Lys-Boc-Wang resin (0.3 mmol/g; GL Biochem))
Settings: whole synthesis, UV 220 nm

Q: With AKPSY[Hyp][Hyp]TYK as the substance, how does the “purity (crude or final not stated)” value read?
A: 97.89%
